Test: Liver weight, body weight and liver to body weight ratio in normal and BDL rats
Assay type: in vivo, rat
Settings: normal rats, tap water containing melatonin (20 mg/L) for 1 week
Description: Male 344 Fischer rats (150-175 g) were purchased from Charles River (Wilmington, Mass.) and kept in a temperature-controlled environment (22° C.) with 12:12 hr light/dark cycles. Animals were fed ad libitum and had free access to food and drinking water. […] Before each surgical procedure, animals were anesthetized with sodium pentobarbital (50 mg/kg BW, IP). All animal experiments were performed in accordance with a protocol approved by the Scott and White and Texas A&M Health Science Center Institutional Animal Care and Use Committee and conform to the Guide for the Care and Use of Laboratory Animals published by the US National Institutes of Health (NIH Publication No. 85-23, revised 1996). In all animals, wet liver weight, body weight, wet liver weight to body weight ratio, and an index of liver cell growth including cholangiocytes were measured ([…] et al., 1988).

COc1ccc2[nH]cc(CCNC(C)=O)c2c1 [melatonin]
Liver to body weight ratio: 4.5 ± 0.2 | Liver weight: 9.4 ± 0.4 gm

— patent US9468670B2, “Melatonin-based treatment and diagnosis of bile duct disease” (Texas A&M University System, priority 2011, dated 2016)
